Measured values published in patent publication US10449223B2, “Use of dehydroeburicoic acid from Antrodia camphorata in the treatment or prevention of diabetes and hyperlipidemia” (priority 2016, dated 2019).
At least one compound was matched to its structure with a doubt left.

Columns and labels:
PEPCK = assay: Semiquantitative RT-PCR, liver tissue: PEPCK mRNA; format: in vivo, C57BL/6J mice; details: STZ-induced diabetic mice; Feno 250 mg/kg/day oral, 28 days; relative to CON group (so in the source)
Description: (§1) Total RNA from liver tissue was isolated with a Trizol Reagent (Molecular Research Center, Inc., Cincinnati, Ohio) according to the manufacturer's directions. The integrity of the extracted total RNA was examined by 2% agarose gel electrophoresis, and the RNA concentration was determined by the ultraviolet (UV) light absorbency at 260 nm and 280 nm (Spectrophotometer U-2800A, Hitachi). Total RNA (1 μg) was reverse transcribed to cDNA in a reaction mixture containing buffer, and 5 μL Moloney murine leukemia virus reverse transcriptase (Epicentre, Madison, Wis., USA). The polymerase chain reaction (PCR) was performed in a final 25 μL containing 1 U Blend Taq-Plus (TOYOBO, Japan), 1 μL of the RT first-strand cDNA product, 10 μM of each forward (F) and reverse (R) primer, 75 mM Tris-HCl (pH 8.3) containing 1 mg/L Tween 20, 2.5 mM dNTP, and 2 mM MgCl2. The products were run on 2% agarose gels and stained with ethidium bromide.

G6 Pase = assay: Semiquantitative RT-PCR, liver tissue: G6 Pase mRNA; format: in vivo, C57BL/6J mice; details: STZ-induced diabetic mice; Feno 250 mg/kg/day oral, 28 days; relative to CON group (so in the source)
Description: as §1

SREBP1c = assay: Semiquantitative RT-PCR, liver tissue: SREBP1c mRNA; format: in vivo, C57BL/6J mice; details: STZ-induced diabetic mice; Feno 250 mg/kg/day oral, 28 days; relative to CON group (so in the source)
Description: as §1

DGAT2 = assay: Semiquantitative RT-PCR, liver tissue: DGAT2 mRNA; format: in vivo, C57BL/6J mice; details: STZ-induced diabetic mice; Feno 250 mg/kg/day oral, 28 days; relative to CON group (so in the source)
Description: as §1

FAS = assay: Western blotting: FAS in liver and adipose tissue of mice; details: STZ-induced diabetic mice; Feno 250 mg/kg/day oral, 28 days
GLUT4 = assay: Western blotting: membrane GLUT4 in skeletal muscle of mice; details: STZ-induced diabetic mice; Feno 250 mg/kg/day oral, 28 days
AMPK = assay: Western blotting: phospho-AMPK (Thr172)/total AMPK in skeletal muscle and liver of mice; details: STZ-induced diabetic mice; Feno 250 mg/kg/day oral, 28 days

Q: What does the source list for `CC(C)OC(=O)C(C)(C)Oc1ccc(C(=O)c2ccc(Cl)cc2)cc1` [Feno, fenofibrate, reference compound]?
A: mRNA levels of PEPCK in liver (PEPCK): decreased; mRNA levels of G6 Pase in liver (G6 Pase): decreased; mRNA levels of SREBP1c in liver (SREBP1c): decreased; mRNA levels of DGAT2 in liver (DGAT2): decreased; expression levels of FAS in adipose tissue (FAS): decreased; membrane expression levels of GLUT4 in skeletal muscle vs STZ group (GLUT4): greater; expression levels of phospho-AMPK/total AMPK in skeletal muscle (AMPK): increased; muscular expression levels of phospho-AMPK/total AMPK compared with the STZ group (second sentence) (AMPK): increased
